Measurements as given in publication PMC7039684.
These are yes or no findings as the source states them, for the method shown. Binding seen in cells or lysates may run through a third protein. Some binding calls cover weakened binding; strength is not graded here.

Amino acid sequences for entries named in this document (tags omitted). Residues count along the entry.
UniProt Q14643: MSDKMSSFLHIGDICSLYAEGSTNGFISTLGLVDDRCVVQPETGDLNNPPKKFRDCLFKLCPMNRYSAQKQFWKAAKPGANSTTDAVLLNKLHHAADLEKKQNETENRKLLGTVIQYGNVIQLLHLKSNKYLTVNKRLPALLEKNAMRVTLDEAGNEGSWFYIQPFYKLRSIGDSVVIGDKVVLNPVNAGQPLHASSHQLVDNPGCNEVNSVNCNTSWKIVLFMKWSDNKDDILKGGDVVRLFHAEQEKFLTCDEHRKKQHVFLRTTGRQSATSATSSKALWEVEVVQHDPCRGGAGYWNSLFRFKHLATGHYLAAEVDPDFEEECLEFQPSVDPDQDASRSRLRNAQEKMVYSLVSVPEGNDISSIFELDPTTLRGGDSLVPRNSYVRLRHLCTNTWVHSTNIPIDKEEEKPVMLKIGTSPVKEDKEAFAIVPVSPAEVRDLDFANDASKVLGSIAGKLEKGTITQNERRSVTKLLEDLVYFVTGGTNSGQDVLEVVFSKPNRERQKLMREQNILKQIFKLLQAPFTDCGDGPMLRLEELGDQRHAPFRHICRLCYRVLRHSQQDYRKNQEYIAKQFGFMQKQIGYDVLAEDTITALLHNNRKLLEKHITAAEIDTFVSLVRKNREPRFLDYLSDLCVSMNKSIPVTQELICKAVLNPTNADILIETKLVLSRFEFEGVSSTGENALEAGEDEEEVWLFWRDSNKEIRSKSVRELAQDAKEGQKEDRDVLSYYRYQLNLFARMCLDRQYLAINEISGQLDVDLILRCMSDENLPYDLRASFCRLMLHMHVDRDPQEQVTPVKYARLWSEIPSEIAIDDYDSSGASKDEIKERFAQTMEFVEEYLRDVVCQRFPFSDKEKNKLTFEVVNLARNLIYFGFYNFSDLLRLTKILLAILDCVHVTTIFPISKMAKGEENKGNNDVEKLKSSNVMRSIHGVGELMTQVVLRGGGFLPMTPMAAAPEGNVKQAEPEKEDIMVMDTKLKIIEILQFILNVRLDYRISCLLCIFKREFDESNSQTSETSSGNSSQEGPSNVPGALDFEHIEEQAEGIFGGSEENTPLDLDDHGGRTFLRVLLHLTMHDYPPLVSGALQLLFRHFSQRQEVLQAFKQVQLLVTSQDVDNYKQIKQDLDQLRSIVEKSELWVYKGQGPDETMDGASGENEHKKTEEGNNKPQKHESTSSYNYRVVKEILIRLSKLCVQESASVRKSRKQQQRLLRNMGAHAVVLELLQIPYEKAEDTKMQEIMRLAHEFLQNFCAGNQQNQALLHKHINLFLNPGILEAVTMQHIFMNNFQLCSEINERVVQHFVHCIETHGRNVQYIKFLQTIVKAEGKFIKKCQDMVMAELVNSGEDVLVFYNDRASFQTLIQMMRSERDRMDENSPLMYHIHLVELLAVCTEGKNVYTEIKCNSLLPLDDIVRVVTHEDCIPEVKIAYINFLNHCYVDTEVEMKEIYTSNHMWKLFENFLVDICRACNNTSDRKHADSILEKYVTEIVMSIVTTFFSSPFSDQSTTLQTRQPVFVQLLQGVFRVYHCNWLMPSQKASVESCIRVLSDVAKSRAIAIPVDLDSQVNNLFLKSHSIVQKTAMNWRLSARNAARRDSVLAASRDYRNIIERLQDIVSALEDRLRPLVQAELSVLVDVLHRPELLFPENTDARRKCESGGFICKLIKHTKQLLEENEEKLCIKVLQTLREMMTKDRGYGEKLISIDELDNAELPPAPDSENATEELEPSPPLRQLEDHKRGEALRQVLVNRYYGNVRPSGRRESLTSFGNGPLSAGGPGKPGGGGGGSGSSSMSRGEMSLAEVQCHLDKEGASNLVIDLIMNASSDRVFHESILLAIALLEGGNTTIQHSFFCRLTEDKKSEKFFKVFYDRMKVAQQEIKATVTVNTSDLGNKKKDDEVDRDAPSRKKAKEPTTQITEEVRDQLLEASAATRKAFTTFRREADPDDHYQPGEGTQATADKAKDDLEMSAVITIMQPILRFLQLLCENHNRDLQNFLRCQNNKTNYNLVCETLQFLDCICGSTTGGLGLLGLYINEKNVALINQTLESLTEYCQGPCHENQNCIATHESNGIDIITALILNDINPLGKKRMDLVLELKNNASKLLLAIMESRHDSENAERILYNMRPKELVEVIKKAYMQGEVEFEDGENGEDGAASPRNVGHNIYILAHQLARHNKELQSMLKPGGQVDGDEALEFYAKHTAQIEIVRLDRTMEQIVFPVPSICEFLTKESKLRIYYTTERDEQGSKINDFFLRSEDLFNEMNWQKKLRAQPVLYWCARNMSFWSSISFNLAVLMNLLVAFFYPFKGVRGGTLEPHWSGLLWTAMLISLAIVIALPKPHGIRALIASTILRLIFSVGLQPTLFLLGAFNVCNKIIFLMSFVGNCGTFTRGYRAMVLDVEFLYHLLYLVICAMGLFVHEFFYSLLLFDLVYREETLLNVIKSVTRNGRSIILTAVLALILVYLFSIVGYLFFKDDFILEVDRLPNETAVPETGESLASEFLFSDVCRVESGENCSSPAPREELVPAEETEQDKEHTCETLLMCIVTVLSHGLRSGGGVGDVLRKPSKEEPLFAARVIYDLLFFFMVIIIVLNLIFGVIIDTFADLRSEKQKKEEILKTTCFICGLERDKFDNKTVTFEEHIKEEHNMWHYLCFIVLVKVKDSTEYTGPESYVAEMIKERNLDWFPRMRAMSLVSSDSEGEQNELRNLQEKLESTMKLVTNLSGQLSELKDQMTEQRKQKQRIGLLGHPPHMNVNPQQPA
UniProt P16056, residues 1001-1374: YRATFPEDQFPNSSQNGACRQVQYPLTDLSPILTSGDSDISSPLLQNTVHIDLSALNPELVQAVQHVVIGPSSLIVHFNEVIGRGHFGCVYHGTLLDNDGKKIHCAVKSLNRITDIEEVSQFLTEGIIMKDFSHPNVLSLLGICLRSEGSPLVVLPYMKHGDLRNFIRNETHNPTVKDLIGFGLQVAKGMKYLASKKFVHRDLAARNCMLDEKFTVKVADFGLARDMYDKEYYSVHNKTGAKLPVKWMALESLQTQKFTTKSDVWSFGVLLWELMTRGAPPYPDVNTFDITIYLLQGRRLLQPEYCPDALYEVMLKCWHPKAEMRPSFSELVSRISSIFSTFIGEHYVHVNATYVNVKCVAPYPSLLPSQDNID
UniProt Q16611: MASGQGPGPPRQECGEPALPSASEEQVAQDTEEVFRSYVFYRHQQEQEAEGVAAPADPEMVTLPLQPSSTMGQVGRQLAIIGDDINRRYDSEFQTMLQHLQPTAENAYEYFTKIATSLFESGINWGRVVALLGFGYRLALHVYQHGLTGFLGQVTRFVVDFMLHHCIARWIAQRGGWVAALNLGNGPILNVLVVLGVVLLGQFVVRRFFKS

Key:
Assay in all cases: FRET or BRET; FLIM-FRET by TCSPC in live co-transfected HEK293T cells, 37°C, L-15 medium; lifetime of the mT2 donor against donor alone; SYFP2 or EYFP fusion as acceptor
[1] = target: T1, BOK-SYFP2 (UniProt Q9UMX3)
T1 sequence: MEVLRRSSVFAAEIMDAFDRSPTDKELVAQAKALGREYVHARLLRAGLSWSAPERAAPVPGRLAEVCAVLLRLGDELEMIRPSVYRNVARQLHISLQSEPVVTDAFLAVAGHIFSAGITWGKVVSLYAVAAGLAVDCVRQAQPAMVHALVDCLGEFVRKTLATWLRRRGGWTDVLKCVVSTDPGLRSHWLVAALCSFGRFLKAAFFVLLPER

[2] = target: IP3R1-EYFP (UniProt Q14643)
[3] = target: T2, BOK-mTurquoise2 (UniProt Q9UMX3)
T2 sequence: T1 sequence

binding [1]	binding [2]	binding [3]	Substance
no binding	no binding	–	p40MET-mTurquoise2 (from UniProt P16056 1001-1374) (domain or fragment)
–	–	binds	BCL-XL-SYFP2 (from UniProt Q07817-1 1-233)
–	no binding	–	BAK-mTurquoise2 (from UniProt Q16611 1-211)
